Measured values published in the supplement of paper PMC12764529.
± gives the half width of the 95% confidence interval. The two proteases of the assay disagree for many of these sequences.

Assays:
[1] = folding stability dG unfold from chymotrypsin proteolysis; higher = more stable
Method in brief: (§1)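 Unfolding free energy was derived, per protease or combined, against a sequence-predicted unfolded-state K50 and a shared folded-state K50, starting from K50 inferred by Bayesian fitting of sequencing counts. Digestion with trypsin and chymotrypsin was carried out on designed mini-proteins under 80 residues without cysteine in a PA-tagged cDNA display construct. Only designs with AlphaFold2 dimer inter-PAE above 15 were kept.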

[2] = folding stability dG unfold (combined trypsin and chymotrypsin); higher = more stable
Method in brief: as §1

[3] = folding stability dG unfold from trypsin proteolysis; higher = more stable
Description: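 Folding stability of de novo designed mini-proteins (<80 aa, no Cys; designed by TrROS, TrMRF, ProteinMPNN and the joint model) was measured by cDNA display proteolysis with trypsin and chymotrypsin. Each protease was used at 11 concentrations in a threefold dilution series plus a no-protease condition. K50 was inferred by Bayesian fitting of sequencing counts, and dG unfold was derived against a sequence-predicted unfolded-state K50 (Tsuboyama et al. method). Sequences shown include variable-length N-terminal GS-type padding (SAGGSAGG...) inside a display construct carrying a PA tag. Rows were kept only if the AF2 dimer inter-PAE was >15, to exclude likely homo-oligomers.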

Sequence | folding stability dG unfold [1] [kcal/mol] | folding stability dG unfold [2] [kcal/mol] | folding stability dG unfold [3] [kcal/mol]
SAGNFEITYNKETNTLTIKYNGKTFTFTLTVTVTVTTTVTLENGETKTVTKTVTKTITLTVEELKKLLKSAG [r5_234_TrROS_Hall] | 5.19 ± 0.17 | 4.62 ± 0.42 | 2.33 ± 0.21
SAGGSAGGSANIKIEIYKHPDGWWIVKIEITVMRMVYDPEDGKMKMEMRTHEFTFIIPPGEISAGGSAGGSA [r18_34_TrROS] | 6.02 ± 0.21 | 5.94 ± 0.79 | 3.7 ± 0.22
SAGGDYVTVSIWIPPENISPEEIKALLQELFPNAEVEYERGPDGLYRISITVPIPPMPPPPPPKDGKSAGGS [r16_535_TrROS] | 3.75 ± 0.11 | 3.33 ± 0.3 | 1.39 ± 0.074
SAGGSAGGLEIEWDIERHPNGWLTVGWRVWGPNGRSREITLTIQVVPPMPANDPEEMAEANGIDSAGGSAGG [r6_293_TrROS] | 4.73 ± 0.13 | 3.93 ± 0.23 | 2.48 ± 0.083
SAGGMEKAKKTVTLTFRIPKELAEELKKGVPLGTKTIAEKLGLPSDVEVKFVEEDDDVVLVEVTLPVSAGGS [r16_679_TrMRF] | 3.491 ± 0.029 | 2.99 ± 0.12 | 1.26 ± 0.026
SAGGSAGGSAGGSWIIIPFTFTIKMEFWDPDNPGKPVEMTHKITIYFAIKIPPPPPGDPSAGGSAGGSAGGS [r4_231_TrROS] | 5.86 ± 0.29 | 5.35 ± 0.37 | 2.72 ± 0.16
SAGGSAGGSKVKIVEARKNENGQYVLRVRNEDTGETLELTFESKEDAEAALKALEEAGYTIETSAGGSAGGS [r20_177_TrROS_Hall] | 4.37 ± 0.087 | 3.94 ± 0.13 | 1.52 ± 0.084
SMAEVNVPLTVEYDPKTGKYYATFTIQFPDSTVPVKKEFTDISEIKKFVEELKKKYSEENPDNVRIDIEKSA [r9_1148_JUSTAS] | 3.73 ± 0.18 | 3.46 ± 0.32 | 1.61 ± 0.071
SAGIEEALEAVAAELGLEITEIEVKKLPDGSLVAKFKFRKDDEEYEVTATYNPATGTLTIDITPVPVKRSAG [r14_784_JUSTAS] | 4.41 ± 0.088 | 3.91 ± 0.1 | 0.94 ± 0.073
SAGYGWVYRSPNGKTMPADDMDEEQMEDMEIVPVEPIPPISINVELEWEFDPNGSLEYKFKIEISIGFSAGG [r19_232_TrROS] | 5.22 ± 0.093 | 4.92 ± 0.14 | 2.74 ± 0.096
SAGGSAGGSAGKKKKKKKKKKIKKVTVTMKFVDKETNEVVEAEITVNKDGTITVKVKKYPSAGGSAGGSAGG [r11_463_TrROS_Hall] | -0.214 ± 0.43 | 1.29 ± 0.43 | 2.09 ± 0.2
SAMTAEVTFTLPDGTPVRRVFEVPPGDPEAVLERIRAELRAEYPDVPLDWVARLLERSPEGRLLIEVVVSAG [r14_622_JUSTAS] | 4.443 ± 0.038 | 3.94 ± 0.086 | 2.4 ± 0.062
SAKKIPAKDIKIKIKIKLPNGEIVEAEIKEVKFDKKTKKLYFYVEIRIVDKKTKKVYTFKAKIIEIEKVSAG [r14_825_TrROS_Hall] | 3.87 ± 0.075 | 3.35 ± 0.42 | 1.77 ± 0.086
SAGMVRIEIEIRVKPGEELTEEQKELARELAEELRRLLPPGAKIRVVDVEVEERDGELVIRVTIEIEPPSAG [r5_121_TrROS_Hall] | 2.5 ± 0.12 | 4.75 ± 0.42 | 4.94 ± 0.31
SAGGSAGGSAGGGRVQVELKARLLVRDPETHELHELELTLRLELPLPPAPPVVTVYRRPSAGGSAGGSAGGS [r10_815_TrROS_Hall] | 2.78 ± 0.17 | 2.05 ± 0.22 | 0.713 ± 0.25
SATVTVTVTATVRERRLELDEDGALRAETRTETVTATATFTLRPPPPPPAPPELVRDPATGEWVPREERSAG [r14_122_TrROS_Hall] | 3.96 ± 0.14 | 3.13 ± 0.47 | 1.51 ± 0.075
SMEKTIEIPIPEGYKITVTIYNEEEVKIEIYLPESNPKIKKEGSIEKIAEKIAKELGIDPKKVKVSYKKYSA [r9_401_JUSTAS] | 3.41 ± 0.049 | 2.84 ± 0.085 | 1.13 ± 0.044
SAGGSAGGSAELELRLEVEVLVRNEDGSLSRRRFELTLRLEFKLPPLSEEERKRLLEELLKSAGGSAGGSAG [r3_252_TrROS_Hall] | 5.81 ± 0.23 | 5.36 ± 0.25 | 3.49 ± 0.19
SAGGSAMPVELAKAAGATKVEEHKENGYLFVTLKGEEEVKVVFKVNKDGTLELVSVTLPEEEVEFPSAGGSA [r15_247_TrMRF] | 2.3 ± 0.062 | 1.67 ± 0.25 | 0.106 ± 0.089
SEVVRLPDDSVVFLRRFGNVTLALTLRREGDRLYLFLSVSHFDPDNPSVHTTSRRLFELPPPVPPPPELLSA [r9_83_TrMRF] | 4.99 ± 0.14 | 4.1 ± 0.55 | 2.55 ± 0.14

A portion from the list above, as a working copy:
Sequence | folding stability dG unfold [1] [kcal/mol] | folding stability dG unfold [2] [kcal/mol] | folding stability dG unfold [3] [kcal/mol]
SAGIEEALEAVAAELGLEITEIEVKKLPDGSLVAKFKFRKDDEEYEVTATYNPATGTLTIDITPVPVKRSAG [r14_784_JUSTAS] | 4.41 ± 0.088 | 3.91 ± 0.1 | 0.94 ± 0.073
SAGYGWVYRSPNGKTMPADDMDEEQMEDMEIVPVEPIPPISINVELEWEFDPNGSLEYKFKIEISIGFSAGG [r19_232_TrROS] | 5.22 ± 0.093 | 4.92 ± 0.14 | 2.74 ± 0.096
SAGGSAGGSAGKKKKKKKKKKIKKVTVTMKFVDKETNEVVEAEITVNKDGTITVKVKKYPSAGGSAGGSAGG [r11_463_TrROS_Hall] | -0.214 ± 0.43 | 1.29 ± 0.43 | 2.09 ± 0.2
SAMTAEVTFTLPDGTPVRRVFEVPPGDPEAVLERIRAELRAEYPDVPLDWVARLLERSPEGRLLIEVVVSAG [r14_622_JUSTAS] | 4.443 ± 0.038 | 3.94 ± 0.086 | 2.4 ± 0.062
SAKKIPAKDIKIKIKIKLPNGEIVEAEIKEVKFDKKTKKLYFYVEIRIVDKKTKKVYTFKAKIIEIEKVSAG [r14_825_TrROS_Hall] | 3.87 ± 0.075 | 3.35 ± 0.42 | 1.77 ± 0.086
SAGMVRIEIEIRVKPGEELTEEQKELARELAEELRRLLPPGAKIRVVDVEVEERDGELVIRVTIEIEPPSAG [r5_121_TrROS_Hall] | 2.5 ± 0.12 | 4.75 ± 0.42 | 4.94 ± 0.31
SAGGSAGGSAGGGRVQVELKARLLVRDPETHELHELELTLRLELPLPPAPPVVTVYRRPSAGGSAGGSAGGS [r10_815_TrROS_Hall] | 2.78 ± 0.17 | 2.05 ± 0.22 | 0.713 ± 0.25
SATVTVTVTATVRERRLELDEDGALRAETRTETVTATATFTLRPPPPPPAPPELVRDPATGEWVPREERSAG [r14_122_TrROS_Hall] | 3.96 ± 0.14 | 3.13 ± 0.47 | 1.51 ± 0.075

More entries:

Sequence | folding stability dG unfold [1] [kcal/mol] | folding stability dG unfold [2] [kcal/mol] | folding stability dG unfold [3] [kcal/mol]
SAGGSAGGSAGEMIDVKIVVKTEDGPVTAVIDVKPDELDEVLKEAEEIPDFEVVDADLGDSAGGSAGGSAGG [r11_692_TrMRF] | 1.48 ± 0.1 | 1.1 ± 0.11 | -0.535 ± 0.24
SAGMYVVTITFTNGEVHVVEFPPGLSEEELEALAEEVAERIEKELGLPDNPVSKIEITPVDDDPARRRASAG [r5_377_JUSTAS] | 3.36 ± 0.038 | 2.88 ± 0.067 | 0.222 ± 0.043
SAGGTITIELPDGVKVTITYDKDTGTITITVEVNGKTYVAKAKIVKNKDGSYTIEIEIYSAEELKKASAGGS [r16_85_TrROS_Hall] | 3.56 ± 0.046 | 3.1 ± 0.14 | 1.27 ± 0.032
SAGGSAGGSAGTVTVTRLPNGEYLVTTTEPVLAPTADGTPVTRTGVTVTTLSPEELAAAASAGGSAGGSAGG [r11_464_JUSTAS] | 1.47 ± 0.034 | 0.966 ± 0.069 | -0.88 ± 0.56
SAGGSAGGSAGGPSLEDLANVPPDVRALVVISGRHPDGGPDEPRLVLFDPATGKVYVFGSAGGSAGGSAGGS [r10_394_TrMRF] | 2.3 ± 0.073 | 1.73 ± 0.084 | -0.342 ± 0.11
SAGARITSVELEEDGSLRLTVELGGLRVTLTFRDGRIESVSVEPLPPPPPPPRVEVERDPETGEWKEKSAGG [r19_254_TrROS_Hall] | 3.79 ± 0.13 | 3.1 ± 0.34 | 1.76 ± 0.18
SAGGSAEAEALAAEARAAGWEAEVRVERLPGPVTRITVTVRAPGGRTVTLELERRPEGWRLLAEEVEASAGG [r13_203_JUSTAS] | 3.82 ± 0.089 | 3.3 ± 0.14 | 1.54 ± 0.05
SAGDVIKIELWIPPGEEMTANEMIDHIKQQLAQRPGFKITEIPDIKIEPYPDNWYRVEIYVKIELPDPSAGG [r19_396_TrROS] | 4.65 ± 0.14 | 4.59 ± 0.29 | 2.46 ± 0.2
SAGGSAGGSGMPPVVTISFSYDPSTNVYTATITYPSGPTYTITFPTSSKSEAEKKAKELVEKKSAGGSAGGS [r12_339_JUSTAS] | 3.77 ± 0.059 | 3.27 ± 0.17 | 1.38 ± 0.11
SATLADYLKKNGYRIKIDVEIREINPMYTPDGGNHMMFQISVKIEIEPPPPPPPPPDPEDMRDPDGKPRSAG [r14_569_TrROS] | 3.74 ± 0.098 | 3.35 ± 0.26 | 1.65 ± 0.12
SAGGSIDIHLGDAENVEAEVFPDGTVVVRVRFAVPPSTPRTLTLRLRLVPPPVPPLVLPDDPLAKGSAGGSA [r2_368_TrMRF] | 4.84 ± 0.12 | 3.92 ± 0.16 | 2.49 ± 0.064
SAGGSAGGSMSTLNIKLHPPPTVSFEELKEKLLEEYPNATVTFSREGETYTLTVTSDDPKLVSSAGGSAGGS [r20_175_JUSTAS] | 3.27 ± 0.19 | 2.13 ± 0.71 | 1.19 ± 0.056
SAGGMKIKVKIKNKETNKVYEAEIVEVKEVGGKTYLFIKLPNGEIKEIPLDEIEEVEVDEETKEITVKSAGG [r13_211_TrROS_Hall] | 4.26 ± 0.073 | 3.77 ± 0.11 | 1.6 ± 0.077
SALEVKVEYDPETKTVKVEVTFHFPTVTVKVTFTVTLDGDTLTLSPSVEVLPPVPPLGPELAAKLAEAASAG [r14_930_TrMRF] | 4.07 ± 0.089 | 3.64 ± 0.12 | 1.66 ± 0.071
SAGGSELTEVRSVELPDAVVRVYRPPDGTYVIEVTFGGKPVVLELPPDTTEEEIEERIEELLKKLRSAGGSA [r2_243_JUSTAS] | 5.25 ± 0.064 | 5.01 ± 0.099 | 2.92 ± 0.074
SAGGSAGGSADDPNNPDQQQKVVPIEIKIEVEIVWIPNGWWIYKITIEFGGITIEIYFAGPWSAGGSAGGSA [r18_335_TrROS] | 5.12 ± 0.11 | 4.73 ± 0.52 | 3.05 ± 0.25
SAGGKEWEKIAEIKLKDGSTITFYRNKNGELVVVVEDKKTKKKIVITVPKNMSLEEVLNKIKELLKKKSAGG [r13_624_TrROS_Hall] | 5.21 ± 0.31 | 4.95 ± 0.34 | 2.18 ± 0.11
SPITADQIKDILRELFPNWEIEDIEVNPGNGEYEIKFPDGWKVEVHVPPDGRIHIRIRYPGKERTIQIPVSA [r9_304_TrROS] | 3.87 ± 0.14 | 3.27 ± 0.23 | 1.34 ± 0.035
SAGGSAGGPLELTLVGISPELAEKLAKLLTELGIPVKIEVVPAPPVPPISPEELEKNPELAKKRSAGGSAGG [r6_804_TrMRF] | 1.72 ± 0.046 | 1.16 ± 0.14 | -0.552 ± 0.28
SAGMEELELELEVTYLFPAGNPPDLQAIADRLRALGLEVEDIRAERPPGDSYRVTARVRLRLPPELARSSAG [r5_167_TrMRF] | 4.176 ± 0.033 | 3.64 ± 0.093 | 0.00927 ± 0.22
